Data reported in the supplement of paper PMC10849652.
The other results are listed elsewhere or left out.

Sequences of proteins named here, by UniProt entry; tags and fusion partners are left off. A change or cut given only in a name is not applied to a line headed by its entry.
UniProt Q9GZT8: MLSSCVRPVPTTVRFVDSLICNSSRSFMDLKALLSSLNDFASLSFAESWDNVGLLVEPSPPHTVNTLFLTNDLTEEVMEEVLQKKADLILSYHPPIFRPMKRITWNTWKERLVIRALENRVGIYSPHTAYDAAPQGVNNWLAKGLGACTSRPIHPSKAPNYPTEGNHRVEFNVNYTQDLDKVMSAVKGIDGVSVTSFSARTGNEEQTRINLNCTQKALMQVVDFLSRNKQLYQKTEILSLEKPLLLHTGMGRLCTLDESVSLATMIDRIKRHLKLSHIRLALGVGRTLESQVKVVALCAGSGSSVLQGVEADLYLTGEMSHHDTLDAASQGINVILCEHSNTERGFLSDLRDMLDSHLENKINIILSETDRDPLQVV
UniProt Q9NX02: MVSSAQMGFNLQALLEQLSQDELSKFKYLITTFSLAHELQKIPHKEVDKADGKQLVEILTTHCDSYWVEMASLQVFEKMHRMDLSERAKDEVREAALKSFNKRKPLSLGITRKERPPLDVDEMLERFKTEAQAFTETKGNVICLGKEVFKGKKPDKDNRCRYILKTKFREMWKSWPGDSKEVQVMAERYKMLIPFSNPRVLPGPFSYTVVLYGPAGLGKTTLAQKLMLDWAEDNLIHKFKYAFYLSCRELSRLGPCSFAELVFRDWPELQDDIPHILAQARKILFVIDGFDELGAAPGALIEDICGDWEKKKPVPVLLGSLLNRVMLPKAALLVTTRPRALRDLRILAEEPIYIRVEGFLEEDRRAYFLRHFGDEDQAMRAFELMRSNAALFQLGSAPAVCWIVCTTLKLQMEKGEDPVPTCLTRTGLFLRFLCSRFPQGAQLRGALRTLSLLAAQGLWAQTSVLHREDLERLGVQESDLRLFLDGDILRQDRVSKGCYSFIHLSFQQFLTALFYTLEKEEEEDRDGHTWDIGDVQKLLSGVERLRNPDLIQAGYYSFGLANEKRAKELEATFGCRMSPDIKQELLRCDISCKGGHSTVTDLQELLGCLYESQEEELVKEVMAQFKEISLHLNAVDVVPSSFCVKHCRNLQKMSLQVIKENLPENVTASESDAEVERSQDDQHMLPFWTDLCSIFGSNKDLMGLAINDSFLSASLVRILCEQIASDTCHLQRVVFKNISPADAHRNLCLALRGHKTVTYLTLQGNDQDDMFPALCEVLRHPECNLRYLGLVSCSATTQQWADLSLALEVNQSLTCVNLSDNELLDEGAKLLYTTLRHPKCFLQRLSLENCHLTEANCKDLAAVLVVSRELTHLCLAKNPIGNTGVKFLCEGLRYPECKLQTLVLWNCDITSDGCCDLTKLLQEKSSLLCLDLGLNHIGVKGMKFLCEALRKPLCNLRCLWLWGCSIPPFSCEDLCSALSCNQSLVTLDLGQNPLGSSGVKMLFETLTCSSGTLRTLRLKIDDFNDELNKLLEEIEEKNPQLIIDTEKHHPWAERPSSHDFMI
UniProt P61916: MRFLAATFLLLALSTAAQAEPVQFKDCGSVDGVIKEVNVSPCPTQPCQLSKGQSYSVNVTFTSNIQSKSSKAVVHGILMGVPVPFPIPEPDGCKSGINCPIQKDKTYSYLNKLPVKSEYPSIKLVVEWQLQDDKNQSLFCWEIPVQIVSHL
UniProt P08651, whole entry, looked up: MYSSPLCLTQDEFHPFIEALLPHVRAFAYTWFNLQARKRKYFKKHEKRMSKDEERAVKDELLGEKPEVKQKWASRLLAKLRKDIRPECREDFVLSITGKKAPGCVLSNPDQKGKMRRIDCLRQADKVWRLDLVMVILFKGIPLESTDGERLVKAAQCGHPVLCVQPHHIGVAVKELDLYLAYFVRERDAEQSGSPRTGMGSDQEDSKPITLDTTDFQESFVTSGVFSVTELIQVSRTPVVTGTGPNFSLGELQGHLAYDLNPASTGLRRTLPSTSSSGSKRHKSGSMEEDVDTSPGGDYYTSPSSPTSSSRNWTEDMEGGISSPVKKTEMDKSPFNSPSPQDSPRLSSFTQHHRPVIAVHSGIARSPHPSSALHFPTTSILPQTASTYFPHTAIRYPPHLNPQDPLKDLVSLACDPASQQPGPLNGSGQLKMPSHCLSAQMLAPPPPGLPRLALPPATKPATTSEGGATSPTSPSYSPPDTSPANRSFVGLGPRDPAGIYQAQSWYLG
UniProt Q8IXM6: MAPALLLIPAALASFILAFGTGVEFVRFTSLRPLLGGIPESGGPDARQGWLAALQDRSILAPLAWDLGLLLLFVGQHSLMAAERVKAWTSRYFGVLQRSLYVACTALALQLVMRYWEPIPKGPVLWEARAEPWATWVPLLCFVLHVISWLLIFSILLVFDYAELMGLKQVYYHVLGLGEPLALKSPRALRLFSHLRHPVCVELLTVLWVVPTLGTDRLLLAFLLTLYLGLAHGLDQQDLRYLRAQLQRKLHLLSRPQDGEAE
UniProt Q9UMS0: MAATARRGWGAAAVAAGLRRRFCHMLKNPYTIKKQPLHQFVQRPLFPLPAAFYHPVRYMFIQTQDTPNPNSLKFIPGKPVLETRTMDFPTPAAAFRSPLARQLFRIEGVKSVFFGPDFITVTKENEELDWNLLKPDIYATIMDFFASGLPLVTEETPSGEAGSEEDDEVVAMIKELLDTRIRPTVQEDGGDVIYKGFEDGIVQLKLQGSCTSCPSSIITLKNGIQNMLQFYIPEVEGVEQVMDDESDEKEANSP
UniProt P23511, whole entry, looked up: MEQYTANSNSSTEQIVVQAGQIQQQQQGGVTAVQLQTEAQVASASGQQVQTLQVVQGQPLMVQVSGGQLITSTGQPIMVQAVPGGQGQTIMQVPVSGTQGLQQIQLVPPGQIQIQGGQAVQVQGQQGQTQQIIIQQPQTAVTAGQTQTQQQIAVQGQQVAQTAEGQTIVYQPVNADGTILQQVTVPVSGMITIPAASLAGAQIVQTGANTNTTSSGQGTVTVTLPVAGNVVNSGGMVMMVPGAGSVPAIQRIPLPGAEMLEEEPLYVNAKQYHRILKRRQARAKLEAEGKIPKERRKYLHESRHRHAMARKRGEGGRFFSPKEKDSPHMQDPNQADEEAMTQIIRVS
UniProt P35240: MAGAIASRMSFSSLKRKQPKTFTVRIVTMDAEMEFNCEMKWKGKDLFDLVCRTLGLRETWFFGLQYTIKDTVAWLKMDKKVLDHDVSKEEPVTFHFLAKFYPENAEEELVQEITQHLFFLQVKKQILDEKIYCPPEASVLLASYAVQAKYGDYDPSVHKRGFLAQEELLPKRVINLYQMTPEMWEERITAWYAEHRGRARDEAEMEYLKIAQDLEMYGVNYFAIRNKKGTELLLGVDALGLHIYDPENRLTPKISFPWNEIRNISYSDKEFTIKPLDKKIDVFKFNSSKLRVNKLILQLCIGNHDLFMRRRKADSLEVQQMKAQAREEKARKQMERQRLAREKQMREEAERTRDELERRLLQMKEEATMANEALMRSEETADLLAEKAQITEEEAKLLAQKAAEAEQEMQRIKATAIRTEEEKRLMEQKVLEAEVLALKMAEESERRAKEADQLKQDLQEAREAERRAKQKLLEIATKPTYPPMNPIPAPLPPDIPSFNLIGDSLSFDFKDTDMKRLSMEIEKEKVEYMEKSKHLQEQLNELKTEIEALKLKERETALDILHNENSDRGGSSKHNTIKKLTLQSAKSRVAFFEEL
UniProt Q9BPW8: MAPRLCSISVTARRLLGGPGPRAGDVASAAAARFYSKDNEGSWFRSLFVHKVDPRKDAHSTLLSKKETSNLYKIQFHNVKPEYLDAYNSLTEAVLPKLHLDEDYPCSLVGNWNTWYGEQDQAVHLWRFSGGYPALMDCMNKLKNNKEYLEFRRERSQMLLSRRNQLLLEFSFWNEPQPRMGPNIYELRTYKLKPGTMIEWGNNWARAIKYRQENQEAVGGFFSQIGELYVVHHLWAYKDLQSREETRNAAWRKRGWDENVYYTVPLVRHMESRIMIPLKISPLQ
UniProt Q8WX92, whole entry, looked up: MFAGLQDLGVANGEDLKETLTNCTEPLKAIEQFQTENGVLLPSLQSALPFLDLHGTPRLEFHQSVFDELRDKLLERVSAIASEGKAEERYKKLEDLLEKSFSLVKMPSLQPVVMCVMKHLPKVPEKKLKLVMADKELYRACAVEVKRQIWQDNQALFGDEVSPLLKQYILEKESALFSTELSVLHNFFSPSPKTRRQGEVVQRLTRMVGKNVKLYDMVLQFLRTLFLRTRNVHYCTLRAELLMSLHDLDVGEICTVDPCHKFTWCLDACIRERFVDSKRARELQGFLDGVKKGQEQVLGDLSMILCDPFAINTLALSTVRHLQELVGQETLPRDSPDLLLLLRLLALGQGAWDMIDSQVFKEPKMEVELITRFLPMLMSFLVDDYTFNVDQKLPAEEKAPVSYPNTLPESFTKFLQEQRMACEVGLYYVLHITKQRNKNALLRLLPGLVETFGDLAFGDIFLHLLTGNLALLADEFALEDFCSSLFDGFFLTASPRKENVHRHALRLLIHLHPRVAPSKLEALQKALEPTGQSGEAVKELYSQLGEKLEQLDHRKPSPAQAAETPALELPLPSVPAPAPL
UniProt Q9UFN0: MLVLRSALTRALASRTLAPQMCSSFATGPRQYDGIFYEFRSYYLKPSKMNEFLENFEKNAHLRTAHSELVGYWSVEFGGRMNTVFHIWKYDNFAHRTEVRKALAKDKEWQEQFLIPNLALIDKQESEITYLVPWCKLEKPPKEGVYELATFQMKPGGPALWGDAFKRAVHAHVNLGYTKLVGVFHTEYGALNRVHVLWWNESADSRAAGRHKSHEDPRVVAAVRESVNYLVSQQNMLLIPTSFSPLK
UniProt P15531, whole entry, looked up: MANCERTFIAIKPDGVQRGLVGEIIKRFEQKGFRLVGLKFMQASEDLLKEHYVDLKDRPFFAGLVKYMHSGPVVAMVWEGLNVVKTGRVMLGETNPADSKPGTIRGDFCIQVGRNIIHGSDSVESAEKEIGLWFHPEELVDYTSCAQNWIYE
UniProt Q9UMY1: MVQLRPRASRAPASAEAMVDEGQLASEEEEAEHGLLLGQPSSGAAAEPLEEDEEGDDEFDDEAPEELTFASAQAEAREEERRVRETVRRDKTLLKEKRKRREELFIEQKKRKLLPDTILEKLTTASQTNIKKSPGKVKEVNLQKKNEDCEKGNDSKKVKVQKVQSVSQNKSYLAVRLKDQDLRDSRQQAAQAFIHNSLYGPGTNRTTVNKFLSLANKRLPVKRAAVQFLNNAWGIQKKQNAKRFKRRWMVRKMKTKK
UniProt Q9Y221: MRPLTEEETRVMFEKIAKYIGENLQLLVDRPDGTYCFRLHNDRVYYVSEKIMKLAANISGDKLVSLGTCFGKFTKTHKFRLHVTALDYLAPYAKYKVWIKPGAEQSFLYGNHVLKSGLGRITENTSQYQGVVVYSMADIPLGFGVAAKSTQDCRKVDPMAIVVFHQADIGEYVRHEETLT
UniProt Q15233: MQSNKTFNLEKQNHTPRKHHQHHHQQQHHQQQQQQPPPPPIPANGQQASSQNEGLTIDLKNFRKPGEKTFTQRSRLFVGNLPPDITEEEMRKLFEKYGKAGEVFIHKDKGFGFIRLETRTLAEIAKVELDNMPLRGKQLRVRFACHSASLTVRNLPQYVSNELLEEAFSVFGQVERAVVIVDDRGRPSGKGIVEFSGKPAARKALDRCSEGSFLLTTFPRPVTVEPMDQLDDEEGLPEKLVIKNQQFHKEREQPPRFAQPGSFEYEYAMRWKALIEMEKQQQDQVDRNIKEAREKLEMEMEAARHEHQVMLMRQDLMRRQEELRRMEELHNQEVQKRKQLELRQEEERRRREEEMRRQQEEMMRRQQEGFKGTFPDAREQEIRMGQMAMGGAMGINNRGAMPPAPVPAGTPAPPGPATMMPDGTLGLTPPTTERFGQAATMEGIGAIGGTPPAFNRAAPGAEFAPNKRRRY
UniProt Q8TAT6: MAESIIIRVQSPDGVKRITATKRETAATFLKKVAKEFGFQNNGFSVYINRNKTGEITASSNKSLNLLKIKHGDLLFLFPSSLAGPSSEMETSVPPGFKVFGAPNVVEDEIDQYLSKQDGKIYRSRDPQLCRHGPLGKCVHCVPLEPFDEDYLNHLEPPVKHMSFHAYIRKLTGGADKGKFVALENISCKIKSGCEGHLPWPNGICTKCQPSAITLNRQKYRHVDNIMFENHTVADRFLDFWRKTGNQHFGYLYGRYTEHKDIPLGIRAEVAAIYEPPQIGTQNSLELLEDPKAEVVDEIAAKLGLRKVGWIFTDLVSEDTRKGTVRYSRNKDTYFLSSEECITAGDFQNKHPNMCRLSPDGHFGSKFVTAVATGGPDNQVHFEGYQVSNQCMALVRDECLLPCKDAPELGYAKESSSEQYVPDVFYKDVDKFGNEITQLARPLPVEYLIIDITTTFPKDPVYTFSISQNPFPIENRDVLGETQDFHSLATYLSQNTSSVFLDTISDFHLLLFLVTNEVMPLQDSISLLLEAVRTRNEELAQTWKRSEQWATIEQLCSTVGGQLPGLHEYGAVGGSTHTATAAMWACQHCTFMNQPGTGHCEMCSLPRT
UniProt Q86WQ0: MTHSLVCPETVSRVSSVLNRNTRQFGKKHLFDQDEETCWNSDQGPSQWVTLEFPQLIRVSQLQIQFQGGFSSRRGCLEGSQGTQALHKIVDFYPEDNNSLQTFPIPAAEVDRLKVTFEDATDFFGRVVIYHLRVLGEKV

Tests used:
Assay in all cases: log2 fold change, soluble protein after heating vs DMSO (PISA); higher = thermal stabilisation; K562 cells, 10 uM, 30 min; active = over 0.2 and 3.5 SD of the protein, either way, in both replicates (recomputed)
[1] = compound: C1=CC=C(C=C1)[C@H](COC2=CC3=C(C=C2)NC(=O)N3)NC(=O)C4=CC=CN(C4=O)CC5=CC(=C(C=C5)F)F
Procedure, shortened: (§1)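 K562 cells at 2×10^6 cells/mL were given 10 μM compound for 30 min. Aliquots then went through 3 min of heating across 48°C-58°C, were pooled, and were extracted in PBS with 0.5% NP-40 at 4°C, and the supernatant after 21,000xg for 90 min was quantified by TMTpro 16plex LC-MS/MS with channel sums equalised. Thermal stability relative to control samples, from duplicates, is given as log2 fold change.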

[2] = compound: CC1=C(SC2=C1C(=N[C@H](C3=NN=C(N32)C)CC(=O)N)C4=CC=C(C=C4)Cl)C
Procedure, shortened: as §1

[3] = compound: CC1=C2C(=CC=C1)N=C(N(C2=O)C3=CC=CC=C3C)CN4C=NC5=C(N=CN=C54)N
Procedure, shortened: as §1

[4] = compound: Cc1sc2c(c1C)C(c1ccc(Cl)cc1)=N[C@@H](CC(=O)OC(C)(C)C)c1nnc(C)n1-2
Procedure, shortened: as §1

[5] = compound: c1ccc([C@@H]2C[C@H]2NC2CCNCC2)cc1
Procedure, shortened: as §1

Measured: log2 fold change

NIF3L1 (UniProt Q9GZT8)
inactive: [1] 0.119 | [2] 0.002 | [3] 0.024 | [4] -0.011 | [5] 0.011

NLRP2 (UniProt Q9NX02)
inactive: [1] -0.084 | [2] 0 | [3] 0.107 | [4] 0 | [5] -0.025

NPC2 (UniProt P61916)
inactive: [1] -0.01 | [2] -0.017 | [3] -0.024 | [4] -0.012 | [5] 0.033

NFIC (UniProt P08651)
inactive: [1] 0.042 | [2] 0.05 | [3] 0.022 | [4] -0.004 | [5] 0.03

NRAS (UniProt P01111)
inactive: [1] -0.001 | [2] 0.082 | [3] -0.018 | [4] -0.017 | [5] 0.017

NOA1 (UniProt Q8NC60)
inactive: [1] -0.031 | [2] 0.101 | [3] 0.178 | [4] 0.02 | [5] 0

NRM (UniProt Q8IXM6)
inactive: [1] -0.034 | [2] -0.048 | [3] -0.044 | [4] 0.103 | [5] 0.136

NFU1 (UniProt Q9UMS0)
inactive: [1] 0.04 | [2] 0.055 | [3] 0.056 | [4] -0.088 | [5] -0.036

NISCH (UniProt Q9Y2I1)
inactive: [1] 0.044 | [2] -0.02 | [3] 0.036 | [4] 0.044 | [5] -0.044

NFYA (UniProt P23511)
inactive: [1] -0.019 | [2] 0.08 | [3] 0.09 | [4] 0.018 | [5] -0.066

NF2 (UniProt P35240)
inactive: [1] -0.01 | [2] 0.02 | [3] 0.093 | [4] -0.01 | [5] -0.013

NIPSNAP1 (UniProt Q9BPW8)
inactive: [1] 0.01 | [2] 0.088 | [3] 0.143 | [4] -0.021 | [5] -0.102

NELFB isoform 2 (UniProt Q8WX92)
inactive: [1] -0.098 | [2] 0.12 | [3] 0.123 | [4] -0.05 | [5] -0.023

NFATC2 (UniProt Q13469)
inactive: [1] -0.063 | [2] 0.097 | [3] 0.077 | [4] 0.023 | [5] 0.021

2 consecutive entries already listed, quoted:
NFYA (UniProt P23511)
inactive: [1] -0.019 | [2] 0.08 | [3] 0.09 | [4] 0.018 | [5] -0.066

NF2 (UniProt P35240)
inactive: [1] -0.01 | [2] 0.02 | [3] 0.093 | [4] -0.01 | [5] -0.013

The listing continues:

NIPSNAP3A (UniProt Q9UFN0)
inactive: [1] 0.052 | [2] 0.011 | [3] 0 | [4] 0.023 | [5] 0.038

NME1 isoform 2 (UniProt P15531)
inactive: [1] 0.095 | [2] 0.142 | [3] 0.069 | [4] 0.033 | [5] -0.108

NOL7 (UniProt Q9UMY1)
inactive: [1] 0.168 | [2] -0.221 | [3] -0.265 | [4] 0.188 | [5] 0.057

NIP7 (UniProt Q9Y221)
inactive: [1] 0.18 | [2] -0.254 | [3] -0.207 | [4] 0.144 | [5] -0.051

NONO (UniProt Q15233)
inactive: [1] -0.092 | [2] -0.179 | [3] -0.039 | [4] 0.004 | [5] 0.018

NPLOC4 isoform 2 (UniProt Q8TAT6)
inactive: [1] -0.02 | [2] 0.018 | [3] 0.046 | [4] -0.029 | [5] 0.006

NIPSNAP2 (UniProt O75323)
inactive: [1] -0.038 | [2] 0.008 | [3] 0.036 | [4] -0.019 | [5] -0.051

NOP56 (UniProt O00567)
inactive: [1] 0.045 | [2] -0.289 | [3] -0.281 | [4] 0.154 | [5] 0.024

NFAT5 isoform 5 (UniProt O94916)
inactive: [1] 0.004 | [2] -0.085 | [3] 0.032 | [4] 0.09 | [5] 0.028

NR2C2AP isoform 2 (UniProt Q86WQ0)
inactive: [1] -0.016 | [2] 0.043 | [3] 0.081 | [4] -0.067 | [5] 0.032
